Data reported in patent US20240382474A1, “ENPP1 MODULATORS AND USES THEREOF” (Vir Biotechnology, Inc., priority 2021, published 2024).
Some results were stated once for a whole list of compounds, not compound by compound.

Test system: MC38 tumors
Assay: Intratumoral cytokine levels at day 10 in MC38 tumors (Study 2; Luminex cytokine and chemokine panel, IFN-β ELISA)
Type: in vivo, C57BL/6 mice
Details: 4 mpk QD
Description: In this study, 6-8 week old female C57BL/6 mice were implanted subcutaneously in the flank with 5×10^5 MC38 cells. Tumors were measured every 2-3 days using a caliper. Body weight was measured every 2-3 days. Dosing initiated on Day (when the average tumor volume reached 50 mm^3 with 15 animals assigned to each treatment group. Animals were dosed orally by gavage with Compound 26 (4 mg/kg PO QD) or Compound 56 (either 1 mg/kg PO QD or 12 mg/kg PO QD).
A subset of 5 animals from each group were collected on day 10 after the initiation of dosing. Tumors were harvested and lysed via sonication. Supernatants were collected, adjusted for total protein, and assayed using a Luminex cytokine and chemokine panel (Invitrogen) and an IFN-β ELISA. The remaining 10 animals in each group were dosed and monitored through Day 27 or until tumors reached 2 cm in size.
Intratumoral concentrations for each of these inflammatory cytokines are provided in picogram of cytokine per gram of tumor tissue. FIGS. 4B-F each provide data for each of the following: (1) untreated control group (circles); (2) mice treated with 4 mg/kg QD Compound 26 (triangles); (3) mice treated with 12 mg/kg QD […]; and (4) mice treated with […].

## COc1ccc2c(Oc3ccc([S@@](=N)(=O)NC[C@@H](C)O)cc3)ccnc2c1 [Compound 26, (S)-N-((R)-2-hydroxypropyl)-4-((7-methoxyquinolin-4-yl)oxy)benzenesulfonimidamide]
  median intratumoral concentration of interferon γ-induced protein 10 kDa (IP-10) (FIG. 4C): 1000-2000 pg IP-10/g of tumor
